This note sets out measurements from PubChem BioAssay AID445 (National Center for Advancing Translational Sciences (NCATS), 2006).

This test in a line: IkB Signaling. The settings on record: ABC-DLBCL IkBa-CBG/CBR dual luciferase ratio (green luciferase fused to IkBa over red control in OCI-Ly3 lymphoma cells), 4 h. In outline:
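Curves were fitted separately to fusion (green), unfused (red) and ratio luminescence, then classed by r2, magnitude and activity. Cells: OCI-Ly3, 4 h compound plus doxycycline at 37C; 10 uM MG-132 defined full response.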

Where [1] appears, read: measured here: control luc red channel unless noted.

SMILES strings stand for the structures. Some of the results follow. These are further read-outs of the screen, such as a control signal, another cell line or another target. No call is given for them. Most of these compounds were active or inconclusive in the main read-out, so they are no random draw. Potencies come from curve fits of mixed quality, noted in brackets.

One may read the AC50 as the concentration at which the activity in the assay is half-maximal. On to `CCc1ccc2oc(=O)cc(CN3CCN(c4ccc(F)cc4)CC3)c2c1`, for which the AC50 under setting [1] was 6.31 µM [falling, partial curve].
In the case of `Cc1cc(S(=O)(=O)C(CNC(=O)c2ccc(F)c(F)c2)c2cccs2)ccc1F` (stereo not drawn), the AC50 under setting [1] was 20 µM [falling, single point].
As to `COc1ccc(C(=O)COC(=O)CCCn2c(=O)oc3ccccc32)cc1`, the AC50 under setting [1] was 25.1 µM [falling, single point].
With `Cc1ccc(NC(=O)c2ccccc2O)cc1`, the AC50 under setting [1] is 15.8 µM [falling, partial curve].
Regarding `CC(=O)N1CCCc2cc(S(=O)(=O)N3CCCC(C(=O)N4CCN(c5ccccc5)CC4)C3)ccc21` (stereo not drawn), the AC50 under setting [1] was 31.6 µM [falling, partial curve].
On the same count and under the same terms, under `Cc1ccc(-c2ccc(=O)n(CC(=O)NCCc3ccccc3)n2)cc1` stands 39.8 µM [falling, single point]; under `O=S(=O)(NCCc1csc2nc(-c3ccccc3)nn12)c1cc(F)ccc1F`, 39.8 µM [falling, single point]; under `Cc1ccc(NC(=O)C(=O)NCC(c2cccnc2)N2CCN(Cc3ccccc3)CC2)cc1F` (stereo not drawn), 20 µM [falling, single point].
As for `Cc1cccc(/C=C/c2onc(C)c2S(=O)(=O)N2CCC(C(=O)N3CCCCC3)CC2)c1`, under setting [1], the half-maximal activity concentration (AC50) is 31.6 µM [falling, partial curve, poor fit].
In the case of `COc1ccc(-c2[nH]c(-c3ccc(Cl)cc3)nc2SCC(=O)NCC2CCCO2)cc1` (stereo not drawn), the AC50 under setting [1] is 25.1 µM [falling, partial curve].
Take `CCc1ccccc1NS(=O)(=O)c1ccc2[nH]cc(C(=O)N(CC)Cc3ccccc3)c(=O)c2c1`: the AC50 under setting [1] was 15.8 µM [falling, partial curve].
For `Cc1ccc(C)c(N2CCN(S(=O)(=O)c3ccc4c(c3)C(C(C)C)C(=O)N4)CC2)c1` (stereo not drawn), under setting [1], the AC50 is 12.6 µM [falling, partial curve].
Regarding `CCc1ccc(C2CC(=O)c3c([nH]c(C(=O)OC4CCCC4)c3C)C2)cc1` (stereo not drawn), the AC50 under setting [1] is 3.16 µM [rising, single point].
With `COc1cccc(-c2nc(CS(=O)(=O)CC(=O)N3CCN(c4cc(C)ccc4C)CC3)c(C)o2)c1`, under setting [1], the AC50 is 10 µM [falling, partial curve].
Turning to `COc1ccc(OC)c(C2CC(=O)Nc3c2c(=O)[nH]c2ncnn32)c1` (stereo not drawn), under setting [1], the half-maximal activity concentration (AC50) is 0.0251 µM [rising, full curve].
Regarding `COc1ccc(C2NC(=O)N(C)C3=C2C(=O)N(c2ccc(C(=O)O)cc2)C3)cc1` (stereo not drawn), the AC50 under setting [1] was 5.01 µM [rising, partial curve].
On the same count and under the same terms, under `CCC(C(=O)N1CCN(c2cccc(Cl)c2)CC1)c1ccccc1` (stereo not drawn) stands 10 µM [falling, partial curve]; under `Cc1ccc2c(CNCc3ccc(C)o3)c(C(=O)O)n(Cc3ccccc3C)c2c1`, 25.1 µM [falling, single point]; under `COC(=O)c1ccccc1NC(=O)C1=CC(c2cccs2)=NS(=O)(=O)N1C`, 20 µM [falling, single point].
Regarding `Cc1ccc(S(=O)(=O)c2nnn(-c3ccc(F)c(Cl)c3)c2N)cc1`, the AC50 under setting [1] is 25.1 µM [falling, partial curve].
As to `CCOc1ccc2nc(N3CCCC(C(=O)NCCc4ccc(OCC)c(OCC)c4)C3)sc2c1` (stereo not drawn), the AC50 under setting [1] was 20 µM [falling, partial curve].
The same measure, in the same setting: under `Cc1cccc(C)c1Nc1c(-c2ccccn2)nc2c(C)cccn12` stands 2.51 µM [falling, full curve, poor fit].
For `O=C(Cc1cccs1)NC1CC(=O)N(c2ccc(F)cc2)C1` (stereo not drawn), the AC50 (measured here: IkB-luc green channel) is 31.6 µM [rising, single point] and the AC50 (measured here: control luc red channel) was 31.6 µM [rising, single point].
As for `COc1ccc(-c2csc3ncnc(Nc4cccc(OC)c4)c23)cc1`, the half-maximal activity concentration (AC50) under setting [1] was 39.8 µM [falling, partial curve].
For the compound `CSc1cccc(NC(=O)Nc2ccccc2OCc2cc(=O)n3cc(C)ccc3n2)c1`, the AC50 under setting [1] was 3.16 µM [falling, full curve].
Take `O=C(c1cc2ccccc2oc1=O)N(Cc1ccc2c(c1)OCO2)Cc1ccco1`: the AC50 under setting [1] was 25.1 µM [falling, partial curve].
Still for that read-out and setting: under `CCC(=O)N1CCc2cc(Br)cc(S(=O)(=O)CCC(=O)N3CCN(c4cccc(C)c4)C(C)C3)c21` (stereo not drawn) stands 5.01 µM [falling, partial curve].
Take `Cc1ccc2c(c1)C(c1ccc(F)cc1)N(C(=O)c1ccc(S(=O)(=O)N3CCCCC3)cc1)CC(=O)N2` (stereo not drawn): the AC50 under setting [1] is 10 µM [falling, partial curve].
Same read-out and setting: to `CC1=C(C(=O)OC2CCCCCCC2)C(c2cccc(O)c2)NC(=O)N1` (stereo not drawn) belongs 25.1 µM [falling, partial curve]; to `O=C(NCc1ccc(Cl)cc1)NCc1noc2ccccc12`, 1 µM [rising, full curve].
For `COc1ccc(C)cc1NC(=O)C1CCCN(c2ncnc3onc(C)c23)C1` (stereo not drawn), the AC50 under setting [1] is 15.8 µM [falling, partial curve, poor fit].
For `Cc1cccc(NC(=O)CCn2cnc3ccccc3c2=O)c1`, the AC50 under setting [1] was 39.8 µM [rising, partial curve, poor fit].
`CCOC(=O)C1=C(CS(=O)(=O)c2ccc(F)c(C)c2)NC(=O)NC1c1ccccc1OC` (stereo not drawn): the AC50 under setting [1] is 12.6 µM [falling, partial curve].
Same read-out and setting: to `CCCc1nnc(NC(=O)c2nc(SCC)ncc2Cl)s1` belongs 39.8 µM [falling, single point]; to `CCCCn1c(=O)n(-c2cc(OC)ccc2OC)c(=O)c2c3c(sc21)CN(C(C)=O)CC3`, 31.6 µM [falling, single point].
On the same count and under the same terms, to `O=C(CC1N=C2c3ccccc3N=C(SCc3ccccc3Cl)N2C1=O)NCCc1ccccc1` (stereo not drawn) belongs 12.6 µM [falling, partial curve]; to `CCOc1ccc(-n2nc3ccc(NC(=O)c4ccc(OC)c(Cl)c4)cc3n2)cc1`, 39.8 µM [falling, single point].
Turning to `CCN=C(NCC)SC1CC(=O)N(c2cccc(OCC)c2)C1=O` (stereo not drawn), the AC50 under setting [1] is 10 µM [falling, partial curve].
As to `Cc1ccc(Nc2c(-c3ccc(C)s3)nc3ccccn23)cc1`, under setting [1], the AC50 was 31.6 µM [falling, single point].
As to `COC(=O)c1cccc(NC2=NS(=O)(=O)c3ccccc32)c1`, the AC50 under setting [1] is 2.51 µM [rising, partial curve].
`Cc1cc(Cl)ccc1NC(=O)Cc1ccc(NC(=O)N2CCCCc3ccccc32)cc1`: the AC50 under setting [1] was 25.1 µM [falling, single point].
With `COc1ccc(C)cc1NC(=O)C1CCN(S(=O)(=O)c2cc(Br)cc3c2N(C(C)=O)CC3)CC1`, the concentration at half-maximal activity (AC50) under setting [1] was 15.8 µM [falling, single point].
`CCc1ccc(C(=O)c2cn(CC(=O)Nc3cccc(OC)c3)c3cc4c(cc3c2=O)OCO4)cc1`: under setting [1], the AC50 was 12.6 µM [falling, partial curve].
Take `CCn1c(SCc2c(F)cccc2Cl)nc(=O)c2c(C(=O)OC)cc(C3CC3)nc21`: the AC50 under setting [1] is 25.1 µM [falling, partial curve].
As for `NCCCCCCNS(=O)(=O)c1ccc2c(Cl)cccc2c1`, the AC50 under setting [1] is 39.8 µM [falling, partial curve, poor fit].
Take `CCOC(=O)c1c(C)oc2nc(C)nc(NCC3CCN(Cc4ccc(C)cc4)CC3)c12`: the AC50 under setting [1] was 39.8 µM [falling, single point].
With `Cc1nn(C)cc1CN(C)C(=O)c1cc(-c2ccccc2)nc2ccc(Br)cc12`, the concentration at half-maximal activity (AC50) under setting [1] is 10 µM [falling, partial curve].
Regarding `O=C(Nc1cccc(C(F)(F)F)c1)c1cnn(-c2cccc(F)c2)c1C1CCNCC1`, the AC50 under setting [1] is 0.398 µM [rising, partial curve].
As to `CCOc1ccc(CCNC(=O)c2oc(=O)c3ccccc3c2-c2ccc(C)cc2)cc1OCC`, under setting [1], the AC50 is 25.1 µM [falling, single point].
On to `CC(C)(C)c1ccc(C(=O)NCCc2csc(-c3ccc(Cl)cc3)n2)cc1`, for which the AC50 under setting [1] is 2.51 µM [falling, full curve].
Regarding `CCOC(=O)Cn1c(=O)n(CC2CCCO2)c2nc(-c3ccccc3)nc(C(N)=O)c21` (stereo not drawn), under setting [1], the AC50 is 25.1 µM [falling, partial curve].
In the case of `CCOC(=O)C1=C(CN2CCN(c3ccccc3OC)CC2)NC(=O)NC1c1ccccc1` (stereo not drawn), the concentration at half-maximal activity (AC50) under setting [1] was 7.94 µM [falling, partial curve].
For `O=C(CN1CCCN(Cc2ccccc2F)S1(=O)=O)Nc1ccc(F)c(Cl)c1`, the AC50 under setting [1] is 25.1 µM [falling, single point].
For the compound `CCc1cccc(C)c1NC(=O)Cn1nc(C)n2cccc2c1=O`, the AC50 under setting [1] is 0.794 µM [falling, full curve].
As to `COCC(C)NC(=O)CCS(=O)(=O)c1nc(-c2ccc(OC)cc2)cc(C(F)(F)F)n1` (stereo not drawn), the AC50 under setting [1] is 7.94 µM [falling, full curve].
`Cc1cc(NC(=O)CN2C(=O)c3cccnc3Sc3ccccc32)ccc1Br`: the AC50 under setting [1] was 25.1 µM [falling, partial curve].
On to `CCc1ccccc1NC(=O)Nc1nnc(N(CC)c2ccccc2)s1`, for which, under setting [1], the AC50 is 20 µM [falling, partial curve].
For `CC(=O)n1cc(C2C(=O)CCCC2=O)c2ccccc21`, the AC50 under setting [1] was 6.31 µM [falling, partial curve].
As for `Cc1ccc2oc(=O)c(S(=O)(=O)c3ccc(C(C)(C)C)cc3)cc2c1`, the AC50 under setting [1] is 0.0158 µM [falling, full curve, poor fit].
On the same count and under the same terms, to `CN(C)c1ccc(CNC(=O)CN2CCSc3ccc(S(=O)(=O)N(C)C)cc32)cc1` belongs 39.8 µM [falling, single point]; to `CCCCCn1c(=O)[nH]c2cc(C(=O)N3CCN(c4cccc(C(F)(F)F)c4)CC3)ccc2c1=O`, 2.51 µM [falling, full curve]; to `CCN(c1ccccc1)S(=O)(=O)c1nnc(NC(=O)COc2cccc(C)c2)s1`, 0.01 µM [rising, full curve].
